No constants are given. Whether binding was seen depends on the method and setting. Binding seen in cells or lysates may run through a third protein. Some results given as binding are weak or reduced against the parent protein; the word gives no strength.

Chains of the proteins cited; added tags and fusions are not shown.
UniProt Q60749: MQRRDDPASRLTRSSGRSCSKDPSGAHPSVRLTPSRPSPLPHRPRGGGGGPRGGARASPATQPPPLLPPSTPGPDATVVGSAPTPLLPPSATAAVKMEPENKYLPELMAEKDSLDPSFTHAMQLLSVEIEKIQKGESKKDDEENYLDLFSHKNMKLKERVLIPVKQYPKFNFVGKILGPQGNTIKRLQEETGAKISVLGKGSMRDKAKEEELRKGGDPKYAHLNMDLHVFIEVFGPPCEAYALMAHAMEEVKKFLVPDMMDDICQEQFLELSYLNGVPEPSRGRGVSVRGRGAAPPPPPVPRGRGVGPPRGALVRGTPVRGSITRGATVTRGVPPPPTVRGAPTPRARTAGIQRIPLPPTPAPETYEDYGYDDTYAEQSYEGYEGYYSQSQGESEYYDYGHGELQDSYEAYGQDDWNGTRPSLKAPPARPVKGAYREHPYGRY

This passage reports binding results from paper PMC2784748.

The experiment addresses Sam68 (endogenous in NIH3T3 cells) (mouse (endogenous in NIH3T3)) (UniProt Q60749). Briefly: co-IP; LNCaP and NIH3T3 whole cell extracts side by side; IP with anti-Sam68 antisera or normal rabbit IgG, Western analysis for Sam68 and hnRNP L; in the presence of Benzonase nuclease.

B1: hnRNP L (endogenous in NIH3T3 cells) (protein, UniProt Q8R081 1-586)
chain: MSRRLLPRAEKRRRRLEQRQQPDEQLRRAGAMVKMAAAGGGGGGGRYYGGGNEGGRAPKRLKTENAGDQHGGGGGGGSGAAGGGGGENYDDPHKTPASPVVHIRGLIDGVVEADLVEALQEFGPISYVVVMPKKRQALVEFEDVLGACNAVNYAADNQIYIAGHPAFVNYSTSQKISRPGDSDDSRSVNSVLLFTILNPIYSITTDVLYTICNPCGPVQRIVIFRKNGVQAMVEFDSVQSAQRAKASLNGADIYSGCCTLKIEYAKPTRLNVFKNDQDTWDYTNPNLSGQGDPGSNPNKRQRQPPLLGDHPAEYGGPHGGYHSHYHDEGYGPPPPHYEGRRMGPPVGGHRRGPSRYGPQYGHPPPPPPPPDYGPHADSPVLMVYGLDQSKMNCDRVFNVFCLYGNVEKVKFMKSKPGAAMVEMADGYAVDRAITHLNNNFMFGQKMNVCVSKQPAIMPGQSYGLEDGSCSYKDFSESRNNRFSTPEQAAKNRIQHPSNVLHFFNAPLEVTEENFFEICDELGVKRPTSVKVFSGKSERSSSGLLEWDSKSDALETLGFLNHYQMKNPNGPYPYTLKLCFSTAQHAS
Consider B1, for which the binding entry was “binds”.
